# Data reported in the supplement of paper PMC10849652.
# Sequences of proteins named here, by UniProt entry; tags and fusion partners are left off. A change or cut given only in a name is not applied to a line headed by its entry.
# UniProt Q15043: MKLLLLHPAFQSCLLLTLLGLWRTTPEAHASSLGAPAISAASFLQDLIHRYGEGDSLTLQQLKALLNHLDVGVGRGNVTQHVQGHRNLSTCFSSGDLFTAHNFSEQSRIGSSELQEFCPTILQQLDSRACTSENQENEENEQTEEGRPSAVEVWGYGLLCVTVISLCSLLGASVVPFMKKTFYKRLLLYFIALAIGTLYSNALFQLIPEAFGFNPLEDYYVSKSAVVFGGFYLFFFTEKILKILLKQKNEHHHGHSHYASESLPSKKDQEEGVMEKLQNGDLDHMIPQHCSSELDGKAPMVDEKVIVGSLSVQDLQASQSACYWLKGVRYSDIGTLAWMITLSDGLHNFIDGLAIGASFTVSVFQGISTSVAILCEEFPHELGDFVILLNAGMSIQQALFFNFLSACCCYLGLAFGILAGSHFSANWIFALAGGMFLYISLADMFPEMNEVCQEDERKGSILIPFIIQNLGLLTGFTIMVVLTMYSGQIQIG
# UniProt Q8NEW0: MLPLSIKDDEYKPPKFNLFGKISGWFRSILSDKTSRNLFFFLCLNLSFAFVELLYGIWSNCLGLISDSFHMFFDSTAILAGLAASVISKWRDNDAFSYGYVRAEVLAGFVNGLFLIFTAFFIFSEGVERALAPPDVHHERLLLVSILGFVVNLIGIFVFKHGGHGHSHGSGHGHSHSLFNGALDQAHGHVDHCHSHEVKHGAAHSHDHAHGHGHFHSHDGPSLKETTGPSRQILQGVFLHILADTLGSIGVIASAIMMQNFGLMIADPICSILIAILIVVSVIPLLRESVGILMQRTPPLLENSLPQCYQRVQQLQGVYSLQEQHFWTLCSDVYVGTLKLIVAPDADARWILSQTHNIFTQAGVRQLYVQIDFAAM
# UniProt Q9H2D1: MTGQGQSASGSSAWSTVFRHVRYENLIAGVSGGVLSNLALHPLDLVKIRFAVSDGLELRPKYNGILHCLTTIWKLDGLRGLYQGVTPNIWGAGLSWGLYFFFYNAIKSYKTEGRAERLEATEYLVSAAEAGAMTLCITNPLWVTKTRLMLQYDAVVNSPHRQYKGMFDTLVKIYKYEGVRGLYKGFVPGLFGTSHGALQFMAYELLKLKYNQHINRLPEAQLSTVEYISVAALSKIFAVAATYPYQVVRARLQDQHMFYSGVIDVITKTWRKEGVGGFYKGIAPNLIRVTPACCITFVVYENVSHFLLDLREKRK
# UniProt Q14542: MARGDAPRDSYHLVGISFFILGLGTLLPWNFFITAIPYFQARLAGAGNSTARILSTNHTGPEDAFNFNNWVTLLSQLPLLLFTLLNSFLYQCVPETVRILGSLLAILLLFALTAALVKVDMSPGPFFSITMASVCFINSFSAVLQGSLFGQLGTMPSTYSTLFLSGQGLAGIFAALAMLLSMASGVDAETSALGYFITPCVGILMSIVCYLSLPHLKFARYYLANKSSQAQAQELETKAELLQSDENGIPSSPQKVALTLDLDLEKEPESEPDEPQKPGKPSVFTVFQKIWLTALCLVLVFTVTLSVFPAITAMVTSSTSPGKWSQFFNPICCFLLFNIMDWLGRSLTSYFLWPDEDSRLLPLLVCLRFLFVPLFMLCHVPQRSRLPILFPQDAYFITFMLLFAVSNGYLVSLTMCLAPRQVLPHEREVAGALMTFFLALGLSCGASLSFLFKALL
# UniProt O75746: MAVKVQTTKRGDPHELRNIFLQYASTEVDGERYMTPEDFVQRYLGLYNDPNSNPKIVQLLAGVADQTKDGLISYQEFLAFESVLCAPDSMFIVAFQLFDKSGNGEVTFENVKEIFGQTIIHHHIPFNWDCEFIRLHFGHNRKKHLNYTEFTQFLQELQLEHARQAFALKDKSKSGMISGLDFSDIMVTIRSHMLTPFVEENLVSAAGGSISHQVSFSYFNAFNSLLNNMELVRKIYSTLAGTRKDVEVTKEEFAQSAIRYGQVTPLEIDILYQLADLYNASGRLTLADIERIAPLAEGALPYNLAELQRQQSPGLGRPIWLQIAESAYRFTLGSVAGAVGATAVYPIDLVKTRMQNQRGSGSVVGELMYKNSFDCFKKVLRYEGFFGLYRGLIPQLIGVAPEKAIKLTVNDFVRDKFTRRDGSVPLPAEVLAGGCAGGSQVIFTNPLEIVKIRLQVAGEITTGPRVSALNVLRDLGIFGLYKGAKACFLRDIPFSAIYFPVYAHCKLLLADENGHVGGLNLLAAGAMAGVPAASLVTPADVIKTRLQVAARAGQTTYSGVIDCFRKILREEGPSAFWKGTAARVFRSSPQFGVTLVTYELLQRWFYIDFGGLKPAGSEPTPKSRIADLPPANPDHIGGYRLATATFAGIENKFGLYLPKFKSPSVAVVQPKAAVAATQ
# UniProt Q8IXU6: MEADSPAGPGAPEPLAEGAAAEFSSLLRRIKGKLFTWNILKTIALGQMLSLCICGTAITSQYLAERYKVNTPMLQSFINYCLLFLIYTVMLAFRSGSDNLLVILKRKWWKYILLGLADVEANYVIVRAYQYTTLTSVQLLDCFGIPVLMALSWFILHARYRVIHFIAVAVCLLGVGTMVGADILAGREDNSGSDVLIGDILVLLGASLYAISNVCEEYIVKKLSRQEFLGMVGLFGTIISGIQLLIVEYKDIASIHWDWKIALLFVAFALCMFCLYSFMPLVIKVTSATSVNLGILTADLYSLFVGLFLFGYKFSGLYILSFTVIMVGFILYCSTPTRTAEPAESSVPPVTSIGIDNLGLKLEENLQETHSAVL
# UniProt Q9UHW9: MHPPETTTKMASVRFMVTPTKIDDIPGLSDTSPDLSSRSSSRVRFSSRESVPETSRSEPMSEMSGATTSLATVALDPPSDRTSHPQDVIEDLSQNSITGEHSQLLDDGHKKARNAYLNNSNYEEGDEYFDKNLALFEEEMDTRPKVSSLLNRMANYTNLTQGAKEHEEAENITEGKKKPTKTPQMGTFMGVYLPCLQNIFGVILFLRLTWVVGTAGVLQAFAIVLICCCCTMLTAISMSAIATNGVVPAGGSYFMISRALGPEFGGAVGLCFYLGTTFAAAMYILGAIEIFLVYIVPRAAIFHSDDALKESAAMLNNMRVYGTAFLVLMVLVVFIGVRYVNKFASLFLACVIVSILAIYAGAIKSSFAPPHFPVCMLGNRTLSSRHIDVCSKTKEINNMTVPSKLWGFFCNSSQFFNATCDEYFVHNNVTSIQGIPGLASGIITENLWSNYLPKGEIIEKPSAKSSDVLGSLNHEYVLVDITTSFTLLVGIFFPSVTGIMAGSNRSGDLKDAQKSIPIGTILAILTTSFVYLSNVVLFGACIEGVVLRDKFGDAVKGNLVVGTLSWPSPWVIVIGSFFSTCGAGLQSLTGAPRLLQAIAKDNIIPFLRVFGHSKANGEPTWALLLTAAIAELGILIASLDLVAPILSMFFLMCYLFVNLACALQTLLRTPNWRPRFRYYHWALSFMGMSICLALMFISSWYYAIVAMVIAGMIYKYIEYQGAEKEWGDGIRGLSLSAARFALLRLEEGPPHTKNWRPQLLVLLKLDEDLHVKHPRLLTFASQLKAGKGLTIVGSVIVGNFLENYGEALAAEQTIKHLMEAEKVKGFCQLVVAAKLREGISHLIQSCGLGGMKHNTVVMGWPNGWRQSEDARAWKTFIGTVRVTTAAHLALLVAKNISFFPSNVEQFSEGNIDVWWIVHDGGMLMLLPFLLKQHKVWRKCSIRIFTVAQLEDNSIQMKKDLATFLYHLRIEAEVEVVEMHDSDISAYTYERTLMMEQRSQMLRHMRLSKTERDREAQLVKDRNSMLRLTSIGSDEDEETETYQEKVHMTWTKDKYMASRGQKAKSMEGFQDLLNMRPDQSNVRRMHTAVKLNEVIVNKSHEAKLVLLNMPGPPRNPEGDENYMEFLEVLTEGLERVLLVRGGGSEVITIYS
# UniProt Q96AG3: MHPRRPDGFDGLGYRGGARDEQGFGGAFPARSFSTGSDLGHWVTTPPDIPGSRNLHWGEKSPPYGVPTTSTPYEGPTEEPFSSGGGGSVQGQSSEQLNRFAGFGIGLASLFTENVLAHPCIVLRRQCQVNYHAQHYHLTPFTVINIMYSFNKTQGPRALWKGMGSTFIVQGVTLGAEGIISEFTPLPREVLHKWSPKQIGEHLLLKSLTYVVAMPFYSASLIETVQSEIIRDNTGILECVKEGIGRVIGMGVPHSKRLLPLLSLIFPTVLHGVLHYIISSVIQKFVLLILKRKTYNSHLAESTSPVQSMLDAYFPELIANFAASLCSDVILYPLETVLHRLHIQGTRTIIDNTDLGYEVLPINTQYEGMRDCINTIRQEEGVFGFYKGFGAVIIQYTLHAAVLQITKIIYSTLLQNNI
# UniProt Q9Y619: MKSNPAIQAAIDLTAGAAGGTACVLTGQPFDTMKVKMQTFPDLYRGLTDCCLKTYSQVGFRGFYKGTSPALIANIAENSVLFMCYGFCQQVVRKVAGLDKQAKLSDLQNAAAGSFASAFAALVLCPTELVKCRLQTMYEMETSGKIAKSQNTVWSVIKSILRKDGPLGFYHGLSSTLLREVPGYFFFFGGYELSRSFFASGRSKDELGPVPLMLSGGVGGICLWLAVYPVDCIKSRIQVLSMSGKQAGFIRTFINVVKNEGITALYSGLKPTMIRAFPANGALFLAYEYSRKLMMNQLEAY
# UniProt Q8WUM9: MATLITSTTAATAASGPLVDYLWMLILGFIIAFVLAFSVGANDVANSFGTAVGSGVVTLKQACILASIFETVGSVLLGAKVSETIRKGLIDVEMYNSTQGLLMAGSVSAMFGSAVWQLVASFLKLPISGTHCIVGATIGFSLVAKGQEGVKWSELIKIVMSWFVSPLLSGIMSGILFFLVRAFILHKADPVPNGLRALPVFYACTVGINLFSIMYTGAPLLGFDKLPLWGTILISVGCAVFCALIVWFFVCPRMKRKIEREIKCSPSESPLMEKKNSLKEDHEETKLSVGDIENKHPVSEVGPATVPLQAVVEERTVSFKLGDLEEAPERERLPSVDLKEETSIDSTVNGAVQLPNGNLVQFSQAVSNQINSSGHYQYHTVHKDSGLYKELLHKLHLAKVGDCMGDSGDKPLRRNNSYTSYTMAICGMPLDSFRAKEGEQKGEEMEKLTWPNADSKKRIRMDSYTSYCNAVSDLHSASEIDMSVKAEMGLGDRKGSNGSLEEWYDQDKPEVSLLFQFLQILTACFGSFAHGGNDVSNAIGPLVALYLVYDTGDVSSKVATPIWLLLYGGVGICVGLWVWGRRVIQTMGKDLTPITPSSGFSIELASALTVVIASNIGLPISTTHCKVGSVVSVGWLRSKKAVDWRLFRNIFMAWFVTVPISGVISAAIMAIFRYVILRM
# UniProt P04920: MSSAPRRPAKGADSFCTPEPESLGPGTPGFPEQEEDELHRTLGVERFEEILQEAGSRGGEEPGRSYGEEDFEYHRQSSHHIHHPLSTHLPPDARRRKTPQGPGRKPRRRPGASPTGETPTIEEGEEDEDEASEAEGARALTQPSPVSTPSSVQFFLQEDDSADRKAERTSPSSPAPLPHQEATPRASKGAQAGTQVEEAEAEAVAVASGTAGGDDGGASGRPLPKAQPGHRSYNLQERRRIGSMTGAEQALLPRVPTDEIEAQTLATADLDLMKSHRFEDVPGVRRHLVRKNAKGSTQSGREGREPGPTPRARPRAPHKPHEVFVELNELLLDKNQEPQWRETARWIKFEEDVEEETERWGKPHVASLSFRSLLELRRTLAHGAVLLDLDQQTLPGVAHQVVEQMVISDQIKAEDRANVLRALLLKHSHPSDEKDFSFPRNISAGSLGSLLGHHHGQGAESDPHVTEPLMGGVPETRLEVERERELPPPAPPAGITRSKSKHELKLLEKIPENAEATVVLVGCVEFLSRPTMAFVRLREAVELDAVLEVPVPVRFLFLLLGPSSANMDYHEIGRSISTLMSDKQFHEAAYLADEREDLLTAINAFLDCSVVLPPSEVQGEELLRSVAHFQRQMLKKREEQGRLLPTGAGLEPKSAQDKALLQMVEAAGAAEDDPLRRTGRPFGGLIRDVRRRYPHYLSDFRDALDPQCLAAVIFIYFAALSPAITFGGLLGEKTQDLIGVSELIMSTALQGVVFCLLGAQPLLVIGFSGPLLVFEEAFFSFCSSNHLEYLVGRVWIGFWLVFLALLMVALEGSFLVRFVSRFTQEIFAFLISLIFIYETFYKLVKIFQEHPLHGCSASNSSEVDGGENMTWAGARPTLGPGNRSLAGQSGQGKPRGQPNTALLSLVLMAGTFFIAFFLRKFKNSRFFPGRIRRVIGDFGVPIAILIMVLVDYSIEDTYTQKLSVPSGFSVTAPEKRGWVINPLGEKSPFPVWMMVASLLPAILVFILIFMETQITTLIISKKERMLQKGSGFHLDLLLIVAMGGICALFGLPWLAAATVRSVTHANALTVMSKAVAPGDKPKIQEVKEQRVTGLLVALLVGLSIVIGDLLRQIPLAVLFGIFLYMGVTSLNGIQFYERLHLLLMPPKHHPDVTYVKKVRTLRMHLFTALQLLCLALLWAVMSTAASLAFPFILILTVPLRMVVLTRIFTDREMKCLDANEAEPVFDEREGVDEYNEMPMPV
# This is one part of the list.
# Assays:
# Test in all cases: log2 fold change, soluble protein after heating vs DMSO (PISA); higher = thermal stabilisation; K562 cells, 10 uM, 30 min; active = over 0.2 and 3.5 SD of the protein, either way, in both replicates (recomputed)
# [1] = compound: CC1=C(C=C(C=C1)NC(=O)C2=CC(=CC=C2)C(C)(C)C#N)NC3=CC4=C(C=C3)N=CN(C4=O)C
# Method in brief: (§1)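 K562 cells at 2×10^6 cells/mL were treated with 10 μM compound for 30 min. Aliquots were heated for 3 min across 48°C-58°C, pooled, and extracted in PBS with 0.5% NP-40 at 4°C; soluble protein was the supernatant after 21,000xg for 90 min. Soluble protein was quantified by TMTpro 16plex LC-MS/MS with channel sums equalised, and reported as log2 fold change in thermal stability against DMSO controls, with values from duplicates.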
# [2] = compound: CC1=C(C=C(C=C1)NC(=O)C2=CC(=CC=C2)N(C)C)NC(=O)C3=CC=C(C=C3)O
# Method in brief: as §1
# [3] = compound: CC1=CC=C(C=C1)SC2=C3C=C(SC3=CN=C2)C(=O)N
# Method in brief: as §1
# [4] = compound: CC1=NC(=CC=C1)C2=C(N=C(N2)C(C)(C)C)C3=CC4=NC=CN=C4C=C3
# Method in brief: as §1
# [5] = compound: CCCCN(Cc1ccc(C(=O)NO)cc1)C(=O)Nc1ccccc1 [Nexturastat A]
# Method in brief: as §1
# [6] = compound: CCCS(=O)(=O)Nc1ccc(F)c(C(=O)c2c[nH]c3ncc(-c4ccc(Cl)cc4)cc23)c1F [vemurafenib]
# Method in brief: as §1
# [7] = compound: CCCS(=O)(=O)Nc1ccc(F)c(C(=O)c2c[nH]c3ncc(Cl)cc23)c1F
# Method in brief: as §1
# [8] = compound: CCCc1cc(C)[nH]c(=O)c1CNC(=O)c1cc(-c2ccnc(N3CCN(C)CC3)c2)cc2c1cnn2C(C)C
# Method in brief: as §1
# [9] = compound: CCN(CC)Cc1ccc2cc(COC(=O)Nc3ccc(C(=O)NO)cc3)ccc2c1 [givinostat]
# Method in brief: as §1
# [10] = compound: CCN(CCCOc1ccc2c(Nc3cc(CC(=O)Nc4cccc(F)c4)[nH]n3)ncnc2c1)CCOP(=O)(O)O [barasertib]
# Method in brief: as §1
Target,log2 fold change [1],log2 fold change [2],log2 fold change [3],log2 fold change [4],log2 fold change [5],log2 fold change [6],log2 fold change [7],log2 fold change [8],log2 fold change [9],log2 fold change [10]
SLC39A14 (UniProt Q15043),inactive: -0.015,inactive: 0.065,inactive: 0.019,inactive: -0.008,inactive: -0.003,inactive: -0.022,inactive: -0.038,inactive: -0.033,inactive: 0.021,inactive: 0.009
SLC37A4 isoform 2 (UniProt O43826),inactive: 0.01,inactive: 0.087,inactive: 0.065,inactive: -0.037,inactive: -0.054,inactive: -0.017,inactive: 0.079,inactive: -0.038,inactive: -0.02,inactive: 0.01
SLC25A42 (UniProt Q86VD7),inactive: -0.007,inactive: 0.041,inactive: 0.038,inactive: -0.049,inactive: -0.021,inactive: -0.015,inactive: 0.089,inactive: -0.054,inactive: -0.006,inactive: 0.001
SLC25A5 (UniProt P05141),inactive: 0.023,inactive: -0.004,inactive: -0.007,inactive: -0.011,inactive: -0.077,inactive: -0.026,inactive: -0.128,inactive: 0.007,inactive: -0.022,inactive: 0
SLC30A7 (UniProt Q8NEW0),inactive: -0.03,inactive: 0.003,inactive: 0.03,inactive: -0.072,inactive: -0.108,inactive: 0.072,inactive: -0.019,inactive: -0.148,inactive: 0.081,inactive: 0.032
SLC25A37 (UniProt Q9NYZ2),inactive: 0.045,inactive: -0.083,inactive: 0.011,inactive: -0.004,inactive: -0.027,inactive: 0.077,inactive: 0.007,inactive: -0.066,inactive: 0.021,inactive: 0.059
SLC25A32 (UniProt Q9H2D1),inactive: 0.025,inactive: 0.038,inactive: 0.013,inactive: -0.011,inactive: 0.032,inactive: -0.029,inactive: -0.017,inactive: -0.09,inactive: 0.013,inactive: -0.017
SLC29A2 (UniProt Q14542),inactive: 0.032,inactive: -0.062,inactive: -0.045,inactive: 0.011,inactive: -0.045,inactive: -0.013,inactive: -0.084,inactive: -0.064,inactive: -0.044,inactive: 0.037
SLC25A33 (UniProt Q9BSK2),inactive: 0.039,inactive: -0.024,inactive: 0.059,inactive: 0.013,inactive: -0.116,inactive: -0.006,inactive: 0.007,inactive: -0.058,inactive: 0.042,inactive: -0.023
SLC25A12 (UniProt O75746),inactive: -0.022,inactive: 0.02,inactive: 0.022,inactive: 0.005,inactive: -0.034,inactive: -0.024,inactive: -0.031,inactive: 0.008,inactive: -0.014,inactive: -0.003
SLC2A1 (UniProt P11166),inactive: -0.008,inactive: 0.017,inactive: 0.02,inactive: -0.017,inactive: -0.125,inactive: 0.016,inactive: -0.033,inactive: 0.002,inactive: -0.007,inactive: -0.022
SLC38A2 (UniProt Q96QD8),inactive: 0.118,inactive: 0.026,inactive: 0.067,inactive: 0.062,inactive: -0.133,inactive: 0.032,inactive: 0.096,inactive: -0.107,inactive: -0.014,inactive: -0.039
SLC25A6 (UniProt P12236),inactive: 0.001,inactive: 0.031,inactive: 0.011,inactive: -0.022,inactive: -0.08,inactive: -0.009,inactive: 0.003,inactive: -0.067,inactive: -0.02,inactive: -0.028
SLC25A31 (UniProt Q9H0C2),inactive: 0.045,inactive: -0.001,inactive: 0.03,inactive: 0.004,inactive: -0.028,inactive: 0.011,inactive: 0.014,inactive: -0.031,inactive: 0,inactive: 0
SLC35F2 (UniProt Q8IXU6),inactive: -0.089,inactive: -0.046,inactive: -0.042,inactive: -0.093,inactive: -0.032,inactive: -0.003,inactive: -0.024,inactive: -0.077,inactive: 0,inactive: -0.064
SLC12A6 isoform 2 (UniProt Q9UHW9),inactive: -0.028,inactive: 0.024,inactive: 0.034,inactive: 0.013,inactive: 0.009,inactive: 0.014,inactive: 0.023,inactive: -0.044,inactive: -0.006,inactive: -0.041
SLC25A46 (UniProt Q96AG3),inactive: 0.004,inactive: -0.037,inactive: -0.023,inactive: 0.022,inactive: -0.027,inactive: -0.074,inactive: -0.015,inactive: -0.026,inactive: -0.028,inactive: 0.004
SLC30A10 (UniProt Q6XR72),inactive: 0.028,inactive: -0.102,inactive: 0.131,inactive: 0.001,active: -0.545,inactive: -0.031,inactive: -0.073,inactive: -0.086,inactive: -0.002,inactive: -0.025
SLC25A15 (UniProt Q9Y619),inactive: -0.041,inactive: 0.069,inactive: 0.009,inactive: -0.006,inactive: -0.056,inactive: 0.014,inactive: -0.025,inactive: -0.06,inactive: -0.013,inactive: 0.013
SLC45A4 isoform 3 (UniProt Q5BKX6),inactive: 0.117,inactive: 0.092,inactive: -0.013,inactive: 0.03,inactive: 0.041,inactive: -0.139,inactive: -0.064,inactive: 0.01,inactive: 0.011,inactive: 0.009
SLC25A25 isoform 3 (UniProt Q6KCM7),inactive: 0.017,inactive: 0.046,inactive: 0.009,inactive: 0.024,inactive: -0.043,inactive: 0.017,inactive: 0.003,inactive: -0.057,inactive: -0.038,inactive: -0.009
SLC20A1 (UniProt Q8WUM9),inactive: -0.052,inactive: -0.009,inactive: -0.004,inactive: -0.092,inactive: -0.022,inactive: -0.079,inactive: -0.053,inactive: -0.087,inactive: -0.015,inactive: 0.001
SLC25A16 (UniProt P16260),inactive: -0.025,inactive: 0.002,inactive: -0.098,inactive: 0,inactive: -0.005,inactive: -0.077,inactive: -0.078,inactive: 0.039,inactive: -0.008,inactive: 0.054
SLC4A2 (UniProt P04920),inactive: 0.04,inactive: 0.008,inactive: 0.039,inactive: -0.017,inactive: 0.046,inactive: 0.002,inactive: 0.035,inactive: -0.043,inactive: 0.037,inactive: 0.045
SLC25A13 isoform 2 (UniProt Q9UJS0),inactive: -0.004,inactive: -0.008,inactive: -0.009,inactive: -0.019,inactive: -0.059,inactive: -0.031,inactive: 0.004,inactive: -0.013,inactive: 0.007,inactive: -0.009
SLC2A3 (UniProt P11169),inactive: 0.062,inactive: 0.009,inactive: 0.025,inactive: -0.016,inactive: -0.066,inactive: 0,inactive: -0.013,inactive: -0.024,inactive: -0.028,inactive: -0.006
SLC25A19 (UniProt Q9HC21),inactive: -0.023,inactive: 0.025,inactive: -0.001,inactive: 0,inactive: -0.042,inactive: -0.029,inactive: -0.006,inactive: -0.058,inactive: -0.016,inactive: -0.028
SLC25A17 (UniProt O43808),inactive: 0.112,inactive: -0.022,inactive: 0.039,inactive: 0.093,inactive: -0.079,inactive: 0.006,inactive: 0.105,inactive: -0.042,inactive: -0.019,inactive: -0.037
SLC38A10 (UniProt Q9HBR0),inactive: -0.078,inactive: 0.03,inactive: 0.081,inactive: -0.014,inactive: -0.074,inactive: 0.02,inactive: 0.115,inactive: -0.069,inactive: 0.021,inactive: 0.058

# Some of the entries above, reformatted.
Target	log2 fold change [1]	log2 fold change [2]	log2 fold change [3]	log2 fold change [4]	log2 fold change [5]	log2 fold change [6]	log2 fold change [7]	log2 fold change [8]	log2 fold change [9]	log2 fold change [10]
SLC45A4 isoform 3 (UniProt Q5BKX6)	inactive: 0.117	inactive: 0.092	inactive: -0.013	inactive: 0.03	inactive: 0.041	inactive: -0.139	inactive: -0.064	inactive: 0.01	inactive: 0.011	inactive: 0.009
SLC25A17 (UniProt O43808)	inactive: 0.112	inactive: -0.022	inactive: 0.039	inactive: 0.093	inactive: -0.079	inactive: 0.006	inactive: 0.105	inactive: -0.042	inactive: -0.019	inactive: -0.037
